Publication PMC9164050, “N-Terminus-Mediated Solution Structure of Dimerization Domain of PRC1” (Current Issues in Molecular Biology, 2022)
These are yes or no findings as the source states them, for the method shown. Some binding calls cover weakened binding; strength is not graded here.

Biological target: PRC1 dimerization domain (PRC1-DD; aa 1-65 of Protein Regulator of Cytokinesis 1) (human) (UniProt O43663)
Experiment: NMR solution structure; 0.5-1.0 mM protein, 50 mM sodium phosphate, 150 mM NaCl, 5 mM DTT, pH 7.4, 298 K; intermolecular NOEs from isotopic heterodimers of unlabelled and 15N-13C-labelled PRC1-DD; both purified

B1: PRC1 dimerization domain (PRC1-DD; aa 1-65 of Protein Regulator of Cytokinesis 1) (domain or fragment, human, UniProt O43663-1 1-65, looked up)
chain: MRRSEVLAEESIVCLQKALNHLREIWELIGIPEDQRLQRTEVVKKHIKELLDMMIAEEESLKERL
notes: Protein Regulator of Cytokinesis 1 (PRC1), human, isoform 1 (NP_003972; full length 620 residues), residues 1-65 (dimerization domain); Cloned between Nde I and Xho I of pET-21a with a C-terminal His-tag; no removal of the tag is described; For NMR the protein was 15N- or 15N/13C-labelled; isotopic heterodimers were made by mixing unlabelled and labelled protein in 8 M urea; also called …
binding: binds
